Reference: PubChem BioAssay AID493014 (National Center for Advancing Translational Sciences (NCATS), 2011)
“And” between values parts separate entries of the source, which are not always exact repeats. Identical values can stand only once. Some of the results follow. Further columns of the screen follow, without active or inactive calls. The list favours compounds with an active or inconclusive main result. Words in brackets tell the shape of the fitted curve; partial curves, single points and poor fits give uncertain potencies.

Test: qHTS Assay to Find Inhibitors of Chronic Active B-Cell Receptor Signaling
Details: ABC-DLBCL IkBa-CBG/CBR reporter, luminescence ratio (green luciferase fused to IkBa over red control in TMD8 lymphoma cells), 4 h
Outline: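 Concentration-response series (up to 46 uM) were applied to TMD8 dual-reporter cells for 4 h at 37C with doxycycline. Green/red ratio, after filter-overlap correction, defined %Activity; red signal alone was normalised to basal cells and zero luminescence.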

[1] = measured here: CBR red luminescence, cell number
[2] = measured here: IkBa-CBG green luminescence

Compound	AC50 [1]	AC50 [2]
O=c1[nH]c2ccccc2s1	16.4 µM [rising, partial curve]	
COc1cc(/C=N/NS(=O)(=O)c2ccc3ccccc3c2)ccc1OCc1ccc(C(=O)O)cc1	2.51 µM [falling, full curve, poor fit]	
C/C(=N\NC(=S)NC(C)C)c1ccccc1OC(F)F		35.5 µM [falling, single point]
Cc1ccc(NC(=O)C(NCc2ccccn2)c2ccccc2)cc1 (configuration not stated)	35.5 µM [falling, single point]	
C=CCN(CC=C)S(=O)(=O)c1ccc(C(=O)Nc2nc3c(s2)CCc2ccccc2-3)cc1	18.4 µM [falling, partial curve]	
COc1ccc([C@H]2CC(=O)C=C(c3ccc(O)cc3)C2)cc1OC	9.2 µM [falling, partial curve, poor fit]	
COc1ccc(CNC(=O)Cc2cn(C)c3ccccc23)c(OC)c1	12.6 µM [falling, single point]	
O=C(CN1CCCN(Cc2ccc(F)cc2)S1(=O)=O)NC1CCCC1	6.31 µM [rising, partial curve, poor fit]	
COCCNC(=S)N1CCN(C(=O)C(=O)Nc2ccc(C(=O)OC)cc2)CC1	20.6 µM [falling, single point]	
Cn1ccnc1SCC(=O)Nc1ccc(Br)cc1C(F)(F)F	20 µM [rising, single point]	
Cc1ccc2nc(SCC(=O)N3CCCC3)[nH]c2c1	35.5 µM [falling, single point]	
CC(C)NC(=S)N/N=C/c1c[nH]c2ccccc12		29.1 µM [falling, single point]
CC(=O)Nc1nnc(SCc2ccccc2F)s1	9.2 µM [rising, partial curve]	
COc1ccc(OC)c(C2C3=C(COC3=O)Nc3cc4c(cc32)OCO4)c1 (configuration not stated)	0.631 µM [rising, full curve, poor fit]	0.891 µM [falling, full curve]
O=[N+]([O-])c1ccc2c(c1)C(O)n1nc(-c3ccccc3)nc1S2 (configuration not stated)	0.891 µM [rising, full curve, poor fit]	
CC(C)COc1ccc(-c2nn(-c3ccccc3)cc2CO)cc1	7.94 µM [rising, partial curve]	
COc1ccc(C(=O)C2CCCN(C(=O)c3cc(C)on3)C2)cc1F (configuration not stated)	0.447 µM [rising, full curve, poor fit]	
CC(=O)Oc1ccc2nc(-c3ccco3)oc(=O)c2c1	4.47 µM [falling, partial curve]	
COc1cccc(NC(=O)Nc2ccc3c(c2)CCC3)c1	17.8 µM [falling, partial curve, poor fit]	
COc1ccc(CCC(=O)N2CC(C)OC(C)C2)cc1 (configuration not stated)	8.2 µM [rising, partial curve, poor fit]	
Cc1nn(-c2ccccc2)c(Cl)c1/C=N/NC(=O)c1ccccc1NS(=O)(=O)c1cccs1	6.51 µM [rising, single point]	

Compound	AC50 [1]	AC50 [2]
CC(C)c1ccc2c(c1)c(SC(C)(C)C)c(CC(C)(C)C(=O)O)n2Cc1ccc(Cl)cc1	5.62 µM [rising, single point] and 4.11 µM [rising, partial curve, poor fit]	
CCCOC(=O)c1ccc(NC(=O)c2c(Cl)ccc(Cl)c2OC)cc1	29.1 µM [falling, single point]	
COc1ccc(/C=C/C(=O)NCCCc2ccccc2)cc1	32.6 µM [falling, partial curve, poor fit]	
CCOc1ccc2nc(N/C(N)=N/C(=S)Nc3cccc(OC)c3)nc(C)c2c1	20 µM [rising, partial curve, poor fit]	
Fc1ccc(NC(=S)N2CCCC(c3ccccc3)=N2)cc1	10 µM [falling, partial curve, poor fit]	
Brc1ccc(-c2cn3c(n2)CCc2ccc4cccnc4c2-3)cc1	8.91 µM [falling, partial curve, poor fit]	35.5 µM [falling, single point]
Cc1nn(C)c(C)c1/C=N/N=C1\CCC2C3CCc4cc(O)ccc4C3CCC12C (configuration not stated)	29.1 µM [rising, single point]	
Cc1ccc(C)n1-n1c(C)nc2sc(-c3ccccc3)cc2c1=O	0.461 µM [rising, partial curve, poor fit]	
CC(C)NCC(=O)C12CC3CC(CC(C3)C1)C2	0.631 µM [rising, full curve, poor fit]	
COC(=O)c1ccc(COC(=O)CNC(=O)c2ccc(-c3ccccc3)cc2)cc1	14.6 µM [falling, partial curve]	
CCOC(=O)C1CCCCN1Cc1cc(Cl)ccc1O (configuration not stated)	29.1 µM [rising, single point]	
Cn1c(=O)[nH]c(=O)c2c1nc(NCCCO)n2CCOc1ccccc1	31.6 µM [rising, single point]	
O=C(CCN1C(=O)/C(=C/c2ccccc2Cl)SC1=S)NN1CCOCC1	3.55 µM [rising, single point]	
COc1ccccc1OCC(=O)Nc1ccc(-c2nnc(-c3ccco3)o2)cc1	12.6 µM [rising, single point]	
Nc1c2c(nc3cccc(Cl)c13)N(c1ccccc1)CC2	35.5 µM [rising, single point]	
Cc1ccc(-c2nc(NC(=O)c3nn(C)cc3[N+](=O)[O-])sc2C)cc1	4.11 µM [falling, full curve, poor fit]	
CC(C)(C)OC(=O)C[C@H]1C/C=C\C[C@@H](CC(=O)N[C@H](CO)Cc2ccccc2)C(=O)N2CCC[C@H]2COC1=O	18.4 µM [rising, single point]	
Cc1ccc2cc(C)c(SCC(=O)NCc3ccco3)nc2c1	11.2 µM [falling, partial curve]	
CC(/C=C/c1ccccc1)=N\Nc1nc(-c2ccccc2)cs1	0.116 µM [rising, full curve, poor fit]	
CCOC(=O)c1cc(S(=O)(=O)N2CCc3ccccc32)cn1C	6.31 µM [rising, single point]	
O=C(/C=C/c1cccs1)Nc1cccnc1	18.4 µM [falling, single point]	

Compound	AC50 [1]	AC50 [2]
CN1CCCCC1CCN1c2ccccc2Sc2ccc(S(C)=O)cc21 (configuration not stated)	6.51 µM [falling, partial curve, poor fit]	
Cc1cccc(C(=O)NC(NCCc2ccccc2)C(Cl)(Cl)Cl)c1 (configuration not stated)	2.82 µM [falling, partial curve, poor fit]	
C=CCn1c(SCC(=O)Nc2nc(C)cs2)nnc1C(NC(=O)c1ccccc1)C(C)C (configuration not stated)	13 µM [falling, partial curve, poor fit]	9.2 µM [rising, partial curve, poor fit]
O=C(Cc1ccc(Cl)cc1Cl)OCC(=O)N1CCCCC1	1.58 µM [rising, partial curve, poor fit]	
CC(C)CCNC(=O)c1ccc(CSCc2cccc(F)c2)o1	13 µM [rising, partial curve, poor fit]	
CCOC(=O)C1=C(SCC)c2cc3c(n2C1=O)CCCC3	8.2 µM [falling, partial curve, poor fit]	9.2 µM [rising, partial curve, poor fit]
O=C(NNC(=S)Nc1cccc(Cl)c1)c1ccccc1OC(F)F	20.6 µM [falling, single point]	
COC(=O)CN1C(=O)N/C(=C/c2cc(OC)c(OC)cc2C)C1=O	10 µM [falling, single point]	
COc1ccc(/C=N/NC(=O)c2ccc(NS(=O)(=O)c3cccs3)cc2)cc1	10.3 µM [falling, partial curve]	
O=C(CCSc1ccccc1)N1CCN(c2ccccc2F)CC1	0.562 µM [rising, partial curve]	
CCc1cc2c(=O)n(-c3ccc(Br)cc3)cnc2s1	10.3 µM [rising, partial curve, poor fit]	
Cc1cc(C(=O)c2ccccc2)nc2ccccc12	2.31 µM [rising, full curve]	
O=S(=O)(c1cccc(-c2nn3c(-c4ccncc4)nnc3s2)c1)N1CCOCC1	29.1 µM [rising, single point]	
CCN(CC)CCNC(=O)c1cc2c(-c3cccc(OC)c3)nn(C)c2s1	22.4 µM [falling, single point]	
Cc1cccc(N(Cc2ccccc2)C(=O)c2ccc(C)c(S(=O)(=O)N3CCOCC3)c2)c1	23.1 µM [rising, single point]	
O=C(C1=NNCC1c1ccccc1)C1OC1c1ccccc1 (configuration not stated)	17.8 µM [falling, single point]	
O=C(COC(=O)c1cc(S(=O)(=O)N2CCOCC2)ccc1O)NCC1CCCO1 (configuration not stated)	15.8 µM [rising, single point]	
COc1ccc(C(C)=O)cc1COC(=O)c1c(C)nn(-c2ccccc2)c1C	22.4 µM [falling, single point]	
CCc1c(C(=O)Nc2cc(C)cc(C)c2)[nH]c(C)c1C(C)=O	4.11 µM [rising, single point]	
Cc1nnc(SCC(=O)Nc2ccc3c4c(cccc24)CC3)n1C	2.91 µM [rising, full curve, poor fit]	
COc1c2c(cc3c1C(CC(O)Cc1ccccc1)N(C)CC3)OCO2 (configuration not stated)	22.4 µM [falling, single point]	
